{"sequences": {"note": "Protein sequences, listed by entry. Tags and fused reporters are not part of them. Residues count along the entry.", "UniProt Q03431, residues 27-593": "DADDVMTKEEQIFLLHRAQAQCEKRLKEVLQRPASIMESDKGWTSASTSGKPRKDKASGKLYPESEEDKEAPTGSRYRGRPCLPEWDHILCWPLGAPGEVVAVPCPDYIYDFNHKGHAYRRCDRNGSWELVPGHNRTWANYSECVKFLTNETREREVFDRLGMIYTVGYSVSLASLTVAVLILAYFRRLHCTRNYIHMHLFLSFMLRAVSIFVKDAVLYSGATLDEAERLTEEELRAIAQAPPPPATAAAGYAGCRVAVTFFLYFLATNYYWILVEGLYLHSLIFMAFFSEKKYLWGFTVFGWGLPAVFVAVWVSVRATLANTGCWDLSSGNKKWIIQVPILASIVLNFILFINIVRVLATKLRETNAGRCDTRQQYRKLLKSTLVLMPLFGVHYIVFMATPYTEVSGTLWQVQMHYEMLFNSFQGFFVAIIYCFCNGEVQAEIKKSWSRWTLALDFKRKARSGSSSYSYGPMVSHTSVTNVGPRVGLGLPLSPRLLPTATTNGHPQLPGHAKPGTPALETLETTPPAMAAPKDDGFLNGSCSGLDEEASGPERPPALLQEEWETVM", "UniProt P32121": "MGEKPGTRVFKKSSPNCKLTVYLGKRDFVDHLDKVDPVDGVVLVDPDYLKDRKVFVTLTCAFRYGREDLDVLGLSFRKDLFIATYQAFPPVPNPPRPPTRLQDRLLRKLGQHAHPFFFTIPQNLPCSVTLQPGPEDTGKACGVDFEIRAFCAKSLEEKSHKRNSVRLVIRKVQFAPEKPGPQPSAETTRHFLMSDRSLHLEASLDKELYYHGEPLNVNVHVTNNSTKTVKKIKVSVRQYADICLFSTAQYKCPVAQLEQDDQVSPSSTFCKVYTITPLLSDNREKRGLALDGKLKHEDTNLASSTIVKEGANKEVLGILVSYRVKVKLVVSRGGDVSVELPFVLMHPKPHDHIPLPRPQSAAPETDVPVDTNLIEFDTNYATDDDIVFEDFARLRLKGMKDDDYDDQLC"}, "source": "paper PMC10853454", "about": "“ADAM19 cleaves the PTH receptor and associates with brachydactyly type E” (Life Science Alliance, 2024)", "biological_target": "PTHR1-Nanoluc (parathyroid hormone receptor 1, expressed without ADAM19) (human) (UniProt Q03431)", "experiment": "FRET or BRET; NanoBRET in living U2OS and SaOS (Saos2) cells transiently transfected with PTHR1-Nanoluc and β-arrestin2-cpVenus, with or without ADAM19 (ratio 1:1:2); read after addition of PTH or PTHrP; furimazine substrate; 37°C", "note": "Results are given in words; binding and its absence hold for the method and conditions named. In cells and extracts the contact can be indirect. Some entries that bind do so weakly or less than the wild type.", "data": [{"substance": "β-arrestin2-cpVenus (from UniProt P32121 1-409)", "values": [{"measurement": "binding", "value": "binds"}]}]}
